Binding signal data for 42 sequences are collected here from paper PMC7819943, “Rice protein-binding microarrays: a tool to detect cis-acting elements near promoter regions in rice”.

The list shows a part of the results.

This assay deals with T1, OsSMF1 (Oryza sativa, UniProt Q6ZLB0 1-436).
T1 sequence: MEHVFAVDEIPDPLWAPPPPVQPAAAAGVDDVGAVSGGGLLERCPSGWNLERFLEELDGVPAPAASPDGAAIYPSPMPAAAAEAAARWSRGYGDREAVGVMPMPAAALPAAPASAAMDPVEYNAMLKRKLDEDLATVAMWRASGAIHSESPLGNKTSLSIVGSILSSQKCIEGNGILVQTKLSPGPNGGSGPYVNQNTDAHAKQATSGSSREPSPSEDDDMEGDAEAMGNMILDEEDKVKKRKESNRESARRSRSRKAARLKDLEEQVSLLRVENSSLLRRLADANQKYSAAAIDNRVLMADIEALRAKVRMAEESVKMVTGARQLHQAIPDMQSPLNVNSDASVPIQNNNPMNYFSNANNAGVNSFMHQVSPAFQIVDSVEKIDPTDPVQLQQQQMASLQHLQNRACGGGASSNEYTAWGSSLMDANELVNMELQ
Put plainly: protein-binding microarray (RPBM); PBS, 2% BSA, 51.3 ng/ul salmon testes DNA, 50 uM zinc acetate, 200 nM TF, 25 C, 1 h; high values mean tight binding. As to conditions: protein: recombinant; tags: N-terminal polyhistidine and DsRed monomer fusion (pET32a); chain copies: 2; label: CyDye5-dUTP incorporated in the synthesized complementary strand; 3' TTTTT single-stranded linker to array surface; dsDNA, one strand shown. The procedure, abridged: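 For the binding signal, per-feature fluorescence intensity was read in arbitrary units on an Axon 4000B scanner. Before scanning, a 2% BSA-blocked custom Agilent array made double-stranded with Cy5-dUTP was washed after 1 h at 25 °C with 200 nM protein and 50 µM zinc acetate. The proteins were Ni–NTA-purified transcription factors with N-terminal polyhistidine and DsRed fusions, expressed in E. coli BL21-CodonPlus.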
Regarding “CCCCTTCTCCTCTGCATCCTCCGCTGCGCGTGCCACCACCCGGAGTCACCTAGTGCAG”, the binding signal is 3290 fluorescence intensity (a.u.). “CTATAACTACAAGTGCCAACACAGCACTGTGATGCAGCACCGGAGTCACCTAGTGCAG”: the binding signal was 10400 fluorescence intensity (a.u.). The value for “CCGGTCGGCCTCGCCGCCGTCGCCGCCGCCACCGCATCACCGGAGTCACCTAGTGCAG” was 4460 fluorescence intensity (a.u.); that for “CCCCGCGTGTCCTTCCTCCTGCACACGTGCCTCGCCGCGCCGGAGTCACCTAGTGCAG” was 7490 fluorescence intensity (a.u.).

“TACTTTTCCTTGTTGGATCTTGGATGATGTGTGTACACACCGGAGTCACCTAGTGCAG”: the binding signal is 4060 fluorescence intensity (a.u.).

As for “GAGGATGGGTTTATGTCAGAATTGAAAGCCTTCCTTCAGACGGAGTCACCTAGTGCAG”, the binding signal is 3420 fluorescence intensity (a.u.).

In the case of “GCGCATGGGCTGGATGCAACCTGAGAAACACTGGGCCGAACGGAGTCACCTAGTGCAG”, the binding signal is 16000 fluorescence intensity (a.u.). The value for “ACGGGCCCGCGTGGGCCCGTCGTTGCAGTCACATCCTCCCCGGAGTCACCTAGTGCAG” was 4830 fluorescence intensity (a.u.); that for “TCTTCATCGTCTTCCTCCTCTCCTCCCGCCACGACGCCATCGGAGTCACCTAGTGCAG” was 3150 fluorescence intensity (a.u.); that for “TAGTCGAGGGCCACGGCCTGGTCGGGGCTCGGCTTCGCCTCGGAGTCACCTAGTGCAG” was 21300 fluorescence intensity (a.u.). The value for “TGGGTGGGTGGTTGCCACTTGGACACGTAGCCGGCGCCCCCGGAGTCACCTAGTGCAG” was 4800 fluorescence intensity (a.u.); that for “GCCGGTGGCCGTGCCGGACGGCGTCACCGTGCCGGAGTTCCGGAGTCACCTAGTGCAG” was 3830 fluorescence intensity (a.u.); that for “TTATACACACAGTGTGTCGTGGAGTCCGTACTACAGCTGGCGGAGTCACCTAGTGCAG” was 3710 fluorescence intensity (a.u.). The same measure for “AATTATGTTTTATAAGACGTTAGCATTTAAACTACAATCCCGGAGTCACCTAGTGCAG”: 55600 fluorescence intensity (a.u.); for “GATGGCCGGGAGGGAGAGAGAAGGACGCGTCGGCTGCTCCCGGAGTCACCTAGTGCAG”: 3850 fluorescence intensity (a.u.). With “TTAAGCCTAATTAATCTGTCATTAGTAAATGTTTACTGTACGGAGTCACCTAGTGCAG”, the binding signal is 20600 fluorescence intensity (a.u.). With “CAAAATATTATTAATAATTGTCACTCGCGACCTGTAGTTGCGGAGTCACCTAGTGCAG”, the binding signal was 3160 fluorescence intensity (a.u.). The value for “AGGGTTCCGCGCGCCGGCCATCTCCCCGCTTCTCACCCCACGGAGTCACCTAGTGCAG” was 3410 fluorescence intensity (a.u.); that for “CTAAAACTCAACATATAAACATGCCACCTCATCATCTATACGGAGTCACCTAGTGCAG” was 7400 fluorescence intensity (a.u.); that for “CTCCTCCCCTCTCCCTGCCACGCGGGCCCCACACCATCTCCGGAGTCACCTAGTGCAG” was 6200 fluorescence intensity (a.u.).

Consider “TTTACTACGCCGACCGGACTAACGTGGCAACATTACACACCGGAGTCACCTAGTGCAG”, for which the binding signal is 4900 fluorescence intensity (a.u.).

Consider “CTGGAGTGCGGATGTGGAATACACGTGTGCCCTGTTATAACGGAGTCACCTAGTGCAG”, for which the binding signal was 8780 fluorescence intensity (a.u.). The value for “AACAATTCTTGAAGGTATGTCAGCATCCCTAGTTTAATAGCGGAGTCACCTAGTGCAG” was 3610 fluorescence intensity (a.u.); that for “ACACAGTGCGTGCCATGATCGTGACTCATGAGCCTTTTGCCGGAGTCACCTAGTGCAG” was 17100 fluorescence intensity (a.u.). The same measure for “CAAGATAGCAATTGATTTACAGCGTATCGATCTATTTGTACGGAGTCACCTAGTGCAG”: 3370 fluorescence intensity (a.u.).

For the sequence “CAACCGGAAACGGGCGATCCACAACCACCACCTAAAATTACGGAGTCACCTAGTGCAG”, the binding signal was 26100 fluorescence intensity (a.u.). The value for “GTAACATGGTTCACGTCATCTTATTTTGCACTTCAATTTACGGAGTCACCTAGTGCAG” was 5570 fluorescence intensity (a.u.); that for “CATTCCCTTTGCGCGCAGCCTCGTCGCCTCGCCTCGCCGACGGAGTCACCTAGTGCAG” was 3240 fluorescence intensity (a.u.); that for “ACAGCGTGGGTGGTTGGTCGACTACACACGCTCGTCGGAGCGGAGTCACCTAGTGCAG” was 3160 fluorescence intensity (a.u.). The value for “TCGATCGTGCATTCATGTGCCCGTACACCTGCGTGCGTGTCGGAGTCACCTAGTGCAG” was 5200 fluorescence intensity (a.u.).

With “TTGGCTGATATGGCGCCTATATGGCTCCTATGACTAAGTACGGAGTCACCTAGTGCAG”, the binding signal was 3580 fluorescence intensity (a.u.). For the sequence “GTCGCCGCAGCCCACGGATAGCCATGGCCCGTCATCGCCGCGGAGTCACCTAGTGCAG”, the binding signal is 3610 fluorescence intensity (a.u.).

For the sequence “AATCTTAAAATCTCTCCTCTCTCTCCAAGTCCCTGCCTCTCGGAGTCACCTAGTGCAG”, the binding signal is 3330 fluorescence intensity (a.u.). The same measure for “CATCATCTCTATCATCATTTCTCATCCATCACTTTCTTTGCGGAGTCACCTAGTGCAG”: 3400 fluorescence intensity (a.u.). The value for “GGCTTACGAGTTCTAACAACGTCATTTTGGACTCACCTTTCGGAGTCACCTAGTGCAG” was 5120 fluorescence intensity (a.u.); that for “ATGGAGCCTGACGTGGCAGCATGTAGCTGGTCCACGTCACCGGAGTCACCTAGTGCAG” was 27400 fluorescence intensity (a.u.). The value for “ATTATTAACATGTGACAGCGACTCATTTTATGATATATTGCGGAGTCACCTAGTGCAG” was 3810 fluorescence intensity (a.u.); that for “TGAAGCGGCCGTCTTGTAAGCAATTGATGACGCCATACACCGGAGTCACCTAGTGCAG” was 7780 fluorescence intensity (a.u.); that for “GAATAGCTGCTTGTTAACTAGGGATTAGAGGTGGGGTTTTCGGAGTCACCTAGTGCAG” was 17400 fluorescence intensity (a.u.).

On to “AGGGGCAATCTCGCATGTGTCCCTTTGTTGGTCTAGTGGCCGGAGTCACCTAGTGCAG”, for which the binding signal was 3340 fluorescence intensity (a.u.). As for “CGTCTTGCAGAAGTGCTTAGGTGACATGGCAGAGGCAAATCGGAGTCACCTAGTGCAG”, the binding signal is 7470 fluorescence intensity (a.u.). The same measure for “GCGTGGACACCCGGCTGCCGATGCTGGTGTACGTGTCGCGCGGAGTCACCTAGTGCAG”: 4940 fluorescence intensity (a.u.).
